In PMC4214753:
No constants are given. Whether binding was seen depends on the method and setting. In cells and extracts the contact can be indirect.

The chains behind the UniProt entries cited, without tags or fusion partners.
UniProt Q9WTQ5: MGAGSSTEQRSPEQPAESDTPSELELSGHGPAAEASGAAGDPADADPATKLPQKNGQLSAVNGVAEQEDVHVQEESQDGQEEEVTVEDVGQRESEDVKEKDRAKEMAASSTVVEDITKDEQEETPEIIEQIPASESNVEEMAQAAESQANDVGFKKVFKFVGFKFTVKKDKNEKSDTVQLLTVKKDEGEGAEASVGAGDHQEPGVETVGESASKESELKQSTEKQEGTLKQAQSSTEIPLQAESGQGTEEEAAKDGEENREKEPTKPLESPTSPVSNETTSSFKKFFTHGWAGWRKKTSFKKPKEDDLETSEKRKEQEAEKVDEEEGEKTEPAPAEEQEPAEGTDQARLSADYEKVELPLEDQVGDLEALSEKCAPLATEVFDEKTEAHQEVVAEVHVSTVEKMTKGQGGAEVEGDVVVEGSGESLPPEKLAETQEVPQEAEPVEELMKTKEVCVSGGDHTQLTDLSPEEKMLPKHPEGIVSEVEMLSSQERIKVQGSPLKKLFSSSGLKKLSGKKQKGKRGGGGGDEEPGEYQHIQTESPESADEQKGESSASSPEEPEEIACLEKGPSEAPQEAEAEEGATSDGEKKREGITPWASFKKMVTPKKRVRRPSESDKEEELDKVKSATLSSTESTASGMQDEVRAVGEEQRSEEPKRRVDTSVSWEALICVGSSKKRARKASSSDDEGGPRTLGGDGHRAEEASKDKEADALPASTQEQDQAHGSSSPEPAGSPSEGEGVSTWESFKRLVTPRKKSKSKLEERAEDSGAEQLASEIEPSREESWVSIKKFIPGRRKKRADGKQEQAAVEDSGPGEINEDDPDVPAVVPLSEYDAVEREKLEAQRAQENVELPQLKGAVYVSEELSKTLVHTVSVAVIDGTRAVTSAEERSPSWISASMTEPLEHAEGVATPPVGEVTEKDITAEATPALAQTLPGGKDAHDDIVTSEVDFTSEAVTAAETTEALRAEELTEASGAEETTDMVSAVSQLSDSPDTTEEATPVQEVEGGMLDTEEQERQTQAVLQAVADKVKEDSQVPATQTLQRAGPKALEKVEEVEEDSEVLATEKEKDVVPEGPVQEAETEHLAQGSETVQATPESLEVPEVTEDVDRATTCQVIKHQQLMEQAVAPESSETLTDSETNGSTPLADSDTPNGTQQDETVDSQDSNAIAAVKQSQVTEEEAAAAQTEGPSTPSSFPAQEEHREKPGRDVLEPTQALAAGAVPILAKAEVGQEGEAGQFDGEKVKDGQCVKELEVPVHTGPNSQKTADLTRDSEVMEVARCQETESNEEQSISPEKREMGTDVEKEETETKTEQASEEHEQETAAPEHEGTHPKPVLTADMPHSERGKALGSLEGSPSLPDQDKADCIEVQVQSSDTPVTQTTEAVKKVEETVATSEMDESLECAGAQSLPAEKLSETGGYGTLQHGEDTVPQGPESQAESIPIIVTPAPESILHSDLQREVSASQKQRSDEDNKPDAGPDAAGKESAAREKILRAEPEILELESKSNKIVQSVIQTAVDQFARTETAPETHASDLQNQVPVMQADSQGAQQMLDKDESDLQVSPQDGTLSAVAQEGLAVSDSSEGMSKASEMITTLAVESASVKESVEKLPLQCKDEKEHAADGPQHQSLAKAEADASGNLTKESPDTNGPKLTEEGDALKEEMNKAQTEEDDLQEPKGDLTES
UniProt P60766: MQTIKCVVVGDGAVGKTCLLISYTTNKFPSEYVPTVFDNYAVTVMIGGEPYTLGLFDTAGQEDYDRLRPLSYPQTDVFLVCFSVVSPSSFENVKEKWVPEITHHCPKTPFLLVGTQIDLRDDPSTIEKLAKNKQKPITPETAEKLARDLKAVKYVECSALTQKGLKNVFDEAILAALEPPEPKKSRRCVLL

How the values were obtained:
[1] = target: SSeCKS (Src-Suppressed C Kinase Substrate) (mouse (endogenous in MEF)) (UniProt Q9WTQ5); assay: co-IP; lysate not stated; no figure
[2] = target: SSeCKS (Src-Suppressed C Kinase Substrate) (mouse (endogenous in MEF)) (UniProt Q9WTQ5); assay: co-IP; WT MEF lysates; no figure

| binding [1] | binding [2] | Molecule |
| --- | --- | --- |
| no binding |  | Cdc42 (from UniProt P60766 1-191) |
|  | no binding | Frabin (FGD1-related F-actin binding protein) (protein, UniProt Q91ZT5 1-766) MEESNPAPTSCTSKGKHSKVSDLISHFEGGSVLSSYIDLQKDSTMNLNIPQTLGQPGLTSSPPRKFLPQHSPQKQENDPDQTQGQHGCLANGVVAAQNQMECEDEKETTLSPEMAIQTAAASPDTHVLNGERNETITDSASSIANSHDENASDSSCRTPGTDLGLPSKEGEPGMDAELQERENGVNTMGLDTLDQHHEVKETNEQKLHKIATELLLTERAYVSRLDLLDQVFYCKLLEEANRGSFPAEMVNKIFSNISSINAFHSKFLLPELEKRMQEWETTPRIGDILQKLAPFLKMYGEYVKGFDNAVELVKTMTERVPQFKSVTEEIQKQKICGSLTLQHHMLEPIQRIPRYEMLLKDYLKKLSPDSPDWNDAKKSLEIISTAASHSNSAIRKMENLKKLLEIYEMLGEEEDIVNPSNELIKEGQILKLAARNTSAQERYLFLFNNMLLYCVPRFSLVGSKFTVRTRVGIDGMKIVETHNEEYPHTFQISGKERTLELQASSEQDKEEWIKALQESIDAFHQRHETFRNAIAKENDIPLEVSTAELGKRAPRWIRDNEVTMCMKCKESFNALTRRRHHCRACGHVVCWKCSDYKAQLEYDGGRLNKVCKDCYQIISGFTDSEEKKRRGILEIESAEVSGNSEVCSFLQYMEKSKPWQKIWCVIPKQDPLVLYMYGAPQDVRAQATIPLLGYVVDDMPKSADLPHSFKLTQSKSVHSFAADNEELKQKWLKIILLAVTGETPDGPSEHLATLNNLPGPKKKSEC |
